Measured values: patent US9724506B2, “Nanopillar electrode devices and methods of recording action potentials” (The Board of Trustees of the Leland Stanford Junior …, priority 2013, dated 2017)
At least one structure is not confirmed: it was looked up by name or label, or the drawing left a doubt.

Tested on: HL-1 cells
Experiment: Nanopillar electrode intracellular recording of HL-1 action potentials after electroporation, before and after ion-channel drug
Type: cell-based, mouse
Method: The HL-1 cardiomyocyte cell line was obtained from the laboratory of William C. Claycomb at Louisiana State University. Before plating, the nanopillar electrode device was cleaned with detergent and deionized water, followed by 5 minutes of oxygen plasma treatment. The culture chamber was coated with 5 Δg ml^−1 fibronectin in 0.02% gelatin solution overnight to facilitate cell attachment (Claycomb et al. (1998) Proc. Natl. Acad. Sci. USA 95:2979-2984). HL-1 cells were then plated inside the chamber at a density of ˜1×10^5 cm^−2 and were maintained in the Claycomb medium supplemented with 10% fetal bovine serum, 0.1 mM norepinephrine, 2 mM L-glutamine and 100 U ml^−1 penicillin and 100 Δg ml^−1 streptomycin. The cells were maintained in a standard incubator at 37° C. and 5% CO2. Medium was changed every 24 hours. […] Fluorescent imaging of calcein dye was performed with a 470 nm excitation filter and a 525 nm emission filter.
A 60-channel voltage amplifier system (Multichannel System, MEA1060) was used to record HL-1 cells cultured on the nanopillar electrode arrays (nine nanopillars per array) after the cells started beating. Recording was performed in the same culture medium at 37° C. with an Ag/AgCl electrode in the medium as the reference electrode. The amplification was typically 110× for intracellular recording or 1,100× for extracellular recording, and the sampling rate was 5-20 kHz. The signal was filtered with a band-pass of 1 Hz-5 kHz. For electroporation, 20 biphasic pulses of 2.5 Vamp were applied to a nanopillar electrode in a total time of 1 second. The recording system was blanked during the electroporation period. Electrophysiology recordings were resumed 20-40 seconds after electroporation to avoid amplifier saturation.
For control experiments, we electroporated the cells to record action potentials in the absence of drugs. After the cells had recovered for a few hours, nifedipine or tetraethyl-ammonium of different concentrations was added to the culture medium and the cultures incubated for 10 minutes. […]

[1] = 100 nM nifedipine, HL-1 cells, versus control recording without drug (FIG. 5)

Q: For `COC(=O)C1=C(C)NC(C)=C(C(=O)OC)C1c1ccccc1[N+](=O)[O-]` [nifedipine], which action potential period [1] is on record?
A: Its action potential period is “increases the period”.

Q: And the “duration of the action potential (quantified by APD50)” value [1]?
A: The value was “clearly decreases the duration of the action potential”.

Q: And the “APD50 relative to the control” value (FIG. 5c, four different HL-1 cells on three different cultures per drug)?
A: Its value is “reduction in the APD50”.
